Measured values from the supplement of paper PMC10849652.
This is one part of the list.

Protein sequences, listed by entry. Tags and fused reporters are not part of them. Lines headed by an entry give the natural chain unless they say otherwise; changes in a name come on top.
UniProt P00352: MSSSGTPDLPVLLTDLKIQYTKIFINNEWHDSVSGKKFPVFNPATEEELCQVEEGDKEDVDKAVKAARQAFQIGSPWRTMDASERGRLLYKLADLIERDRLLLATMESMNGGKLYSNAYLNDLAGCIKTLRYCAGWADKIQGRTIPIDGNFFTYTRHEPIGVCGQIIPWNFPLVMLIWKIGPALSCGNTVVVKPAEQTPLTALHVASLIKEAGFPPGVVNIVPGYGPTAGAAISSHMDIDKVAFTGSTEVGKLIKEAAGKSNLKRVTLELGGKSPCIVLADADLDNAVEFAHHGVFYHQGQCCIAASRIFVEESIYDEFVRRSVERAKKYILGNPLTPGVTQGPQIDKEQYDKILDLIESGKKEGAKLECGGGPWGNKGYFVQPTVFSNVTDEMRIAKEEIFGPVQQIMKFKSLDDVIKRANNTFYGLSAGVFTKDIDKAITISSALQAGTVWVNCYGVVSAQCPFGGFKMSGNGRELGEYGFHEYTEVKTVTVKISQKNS
UniProt Q3KRA9: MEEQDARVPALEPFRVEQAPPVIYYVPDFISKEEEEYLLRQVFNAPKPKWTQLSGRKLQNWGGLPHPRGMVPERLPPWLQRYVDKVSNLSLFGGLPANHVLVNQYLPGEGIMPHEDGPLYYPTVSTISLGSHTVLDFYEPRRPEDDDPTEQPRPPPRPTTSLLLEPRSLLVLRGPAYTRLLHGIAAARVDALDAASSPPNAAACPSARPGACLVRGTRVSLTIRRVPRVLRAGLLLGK
UniProt Q9Y303: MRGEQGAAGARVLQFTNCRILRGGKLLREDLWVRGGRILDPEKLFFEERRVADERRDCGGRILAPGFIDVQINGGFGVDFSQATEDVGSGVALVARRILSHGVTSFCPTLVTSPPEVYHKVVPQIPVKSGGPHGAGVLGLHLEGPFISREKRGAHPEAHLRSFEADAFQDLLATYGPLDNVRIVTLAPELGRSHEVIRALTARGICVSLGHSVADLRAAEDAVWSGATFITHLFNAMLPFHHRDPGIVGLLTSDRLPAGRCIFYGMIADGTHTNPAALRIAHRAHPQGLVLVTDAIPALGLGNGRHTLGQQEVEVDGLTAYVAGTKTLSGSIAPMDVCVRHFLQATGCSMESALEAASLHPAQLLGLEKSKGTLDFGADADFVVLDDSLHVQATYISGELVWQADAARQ
UniProt O43488: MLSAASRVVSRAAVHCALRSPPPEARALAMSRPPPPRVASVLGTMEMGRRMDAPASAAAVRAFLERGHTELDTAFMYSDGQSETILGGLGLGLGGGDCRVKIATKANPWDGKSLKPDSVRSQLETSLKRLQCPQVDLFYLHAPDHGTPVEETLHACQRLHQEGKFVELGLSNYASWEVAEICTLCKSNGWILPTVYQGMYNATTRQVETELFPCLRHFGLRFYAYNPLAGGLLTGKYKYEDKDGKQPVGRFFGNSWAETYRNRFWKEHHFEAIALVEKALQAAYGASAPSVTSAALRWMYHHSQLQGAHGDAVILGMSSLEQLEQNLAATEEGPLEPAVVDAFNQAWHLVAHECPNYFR
UniProt Q02952: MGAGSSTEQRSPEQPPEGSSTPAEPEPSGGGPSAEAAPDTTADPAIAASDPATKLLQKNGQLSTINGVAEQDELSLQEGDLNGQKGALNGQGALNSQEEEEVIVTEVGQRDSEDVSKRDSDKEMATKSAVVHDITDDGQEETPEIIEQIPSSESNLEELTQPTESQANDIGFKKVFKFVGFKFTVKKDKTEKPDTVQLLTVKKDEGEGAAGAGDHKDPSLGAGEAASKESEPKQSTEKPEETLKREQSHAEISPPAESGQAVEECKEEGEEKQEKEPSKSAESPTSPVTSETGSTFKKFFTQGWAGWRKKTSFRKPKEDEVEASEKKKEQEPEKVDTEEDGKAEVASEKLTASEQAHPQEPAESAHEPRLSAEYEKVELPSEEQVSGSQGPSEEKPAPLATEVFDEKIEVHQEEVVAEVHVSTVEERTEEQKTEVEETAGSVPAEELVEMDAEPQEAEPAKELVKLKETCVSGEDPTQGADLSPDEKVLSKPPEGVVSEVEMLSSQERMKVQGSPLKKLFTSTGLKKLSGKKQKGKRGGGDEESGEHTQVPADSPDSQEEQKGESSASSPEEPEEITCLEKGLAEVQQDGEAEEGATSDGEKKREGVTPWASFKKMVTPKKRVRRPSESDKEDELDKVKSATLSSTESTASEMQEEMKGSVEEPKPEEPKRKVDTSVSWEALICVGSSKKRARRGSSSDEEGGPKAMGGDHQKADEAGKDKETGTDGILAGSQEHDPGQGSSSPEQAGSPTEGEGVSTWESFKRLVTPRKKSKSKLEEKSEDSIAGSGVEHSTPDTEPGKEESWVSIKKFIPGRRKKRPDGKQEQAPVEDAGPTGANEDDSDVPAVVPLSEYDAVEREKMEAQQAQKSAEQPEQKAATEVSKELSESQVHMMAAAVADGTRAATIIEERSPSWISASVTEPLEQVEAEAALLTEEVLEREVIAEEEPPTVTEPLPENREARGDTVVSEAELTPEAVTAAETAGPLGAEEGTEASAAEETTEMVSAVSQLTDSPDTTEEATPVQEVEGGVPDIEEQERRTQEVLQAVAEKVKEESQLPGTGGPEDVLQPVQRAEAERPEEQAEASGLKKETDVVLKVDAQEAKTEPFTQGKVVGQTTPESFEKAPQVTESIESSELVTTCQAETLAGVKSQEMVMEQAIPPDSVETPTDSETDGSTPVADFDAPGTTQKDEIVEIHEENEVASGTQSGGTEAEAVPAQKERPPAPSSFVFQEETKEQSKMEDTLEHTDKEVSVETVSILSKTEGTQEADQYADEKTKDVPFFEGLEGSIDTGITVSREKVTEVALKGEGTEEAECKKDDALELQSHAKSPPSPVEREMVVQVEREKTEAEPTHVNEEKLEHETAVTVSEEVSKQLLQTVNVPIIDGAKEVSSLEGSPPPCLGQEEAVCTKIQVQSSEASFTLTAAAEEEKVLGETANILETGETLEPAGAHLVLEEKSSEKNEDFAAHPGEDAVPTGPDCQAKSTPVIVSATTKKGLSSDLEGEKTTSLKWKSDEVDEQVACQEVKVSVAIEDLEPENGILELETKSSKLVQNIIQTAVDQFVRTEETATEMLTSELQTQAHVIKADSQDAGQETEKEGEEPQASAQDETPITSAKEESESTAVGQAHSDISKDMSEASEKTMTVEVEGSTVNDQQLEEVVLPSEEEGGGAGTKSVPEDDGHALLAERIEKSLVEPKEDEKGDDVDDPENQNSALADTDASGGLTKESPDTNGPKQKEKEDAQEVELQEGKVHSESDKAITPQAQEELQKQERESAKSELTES
UniProt P13716: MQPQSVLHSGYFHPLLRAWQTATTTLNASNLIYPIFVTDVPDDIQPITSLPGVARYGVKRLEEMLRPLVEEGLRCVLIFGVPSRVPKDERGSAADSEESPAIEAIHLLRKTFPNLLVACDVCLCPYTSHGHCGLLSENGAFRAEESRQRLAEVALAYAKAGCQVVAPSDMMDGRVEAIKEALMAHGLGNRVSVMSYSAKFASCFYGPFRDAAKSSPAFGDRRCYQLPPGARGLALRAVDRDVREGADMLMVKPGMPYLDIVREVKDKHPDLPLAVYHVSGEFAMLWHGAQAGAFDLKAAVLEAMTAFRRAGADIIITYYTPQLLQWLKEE
UniProt P14550: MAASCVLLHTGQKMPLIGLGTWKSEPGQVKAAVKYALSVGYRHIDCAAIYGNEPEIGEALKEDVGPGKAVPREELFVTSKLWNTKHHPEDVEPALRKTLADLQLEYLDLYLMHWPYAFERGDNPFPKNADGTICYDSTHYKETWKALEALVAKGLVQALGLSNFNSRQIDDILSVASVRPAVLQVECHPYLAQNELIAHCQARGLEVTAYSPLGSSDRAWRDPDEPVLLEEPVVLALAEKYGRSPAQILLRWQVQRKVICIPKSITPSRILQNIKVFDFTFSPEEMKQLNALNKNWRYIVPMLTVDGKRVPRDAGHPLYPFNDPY
UniProt Q9BQI0: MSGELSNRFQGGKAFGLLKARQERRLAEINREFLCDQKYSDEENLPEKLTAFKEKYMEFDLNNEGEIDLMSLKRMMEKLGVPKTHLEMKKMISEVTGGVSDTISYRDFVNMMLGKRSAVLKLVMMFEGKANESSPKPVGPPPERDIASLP
UniProt Q96Q83: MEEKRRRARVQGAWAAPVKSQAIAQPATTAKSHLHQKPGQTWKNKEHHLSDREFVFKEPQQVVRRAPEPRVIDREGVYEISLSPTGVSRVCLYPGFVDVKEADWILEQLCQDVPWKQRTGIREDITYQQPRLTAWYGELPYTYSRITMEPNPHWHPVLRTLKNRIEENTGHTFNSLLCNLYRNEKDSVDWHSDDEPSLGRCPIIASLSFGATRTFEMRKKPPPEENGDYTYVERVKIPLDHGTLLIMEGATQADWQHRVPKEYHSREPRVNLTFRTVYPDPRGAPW
UniProt Q53H80, whole entry, looked up: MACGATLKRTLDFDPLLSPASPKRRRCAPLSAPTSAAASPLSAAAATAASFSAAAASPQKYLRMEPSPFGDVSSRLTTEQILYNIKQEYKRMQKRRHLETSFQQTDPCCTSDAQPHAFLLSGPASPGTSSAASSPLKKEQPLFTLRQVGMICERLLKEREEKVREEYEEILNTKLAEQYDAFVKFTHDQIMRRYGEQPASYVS
UniProt Q9UKV8, whole entry, looked up: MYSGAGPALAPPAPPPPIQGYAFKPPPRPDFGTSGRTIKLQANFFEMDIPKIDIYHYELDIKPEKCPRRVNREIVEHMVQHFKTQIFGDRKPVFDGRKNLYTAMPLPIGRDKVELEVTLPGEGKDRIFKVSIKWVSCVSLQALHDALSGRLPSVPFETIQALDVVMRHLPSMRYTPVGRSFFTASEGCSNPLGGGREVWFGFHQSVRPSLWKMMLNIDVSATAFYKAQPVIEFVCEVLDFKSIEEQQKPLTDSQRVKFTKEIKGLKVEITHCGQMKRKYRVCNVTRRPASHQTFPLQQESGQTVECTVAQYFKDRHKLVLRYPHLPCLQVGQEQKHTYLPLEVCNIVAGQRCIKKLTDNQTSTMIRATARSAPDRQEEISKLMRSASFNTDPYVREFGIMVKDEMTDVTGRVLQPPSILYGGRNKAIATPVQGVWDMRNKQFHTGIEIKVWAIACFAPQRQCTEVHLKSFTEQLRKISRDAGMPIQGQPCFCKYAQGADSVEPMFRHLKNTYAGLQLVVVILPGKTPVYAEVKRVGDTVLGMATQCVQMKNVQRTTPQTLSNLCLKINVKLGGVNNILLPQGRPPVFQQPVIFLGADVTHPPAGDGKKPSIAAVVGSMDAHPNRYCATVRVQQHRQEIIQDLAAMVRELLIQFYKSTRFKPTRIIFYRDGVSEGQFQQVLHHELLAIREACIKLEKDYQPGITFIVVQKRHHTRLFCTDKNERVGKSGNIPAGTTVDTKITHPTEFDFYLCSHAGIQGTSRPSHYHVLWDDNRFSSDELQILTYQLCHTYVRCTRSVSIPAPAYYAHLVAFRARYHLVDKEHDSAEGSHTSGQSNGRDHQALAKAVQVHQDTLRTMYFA
UniProt Q9UHX3: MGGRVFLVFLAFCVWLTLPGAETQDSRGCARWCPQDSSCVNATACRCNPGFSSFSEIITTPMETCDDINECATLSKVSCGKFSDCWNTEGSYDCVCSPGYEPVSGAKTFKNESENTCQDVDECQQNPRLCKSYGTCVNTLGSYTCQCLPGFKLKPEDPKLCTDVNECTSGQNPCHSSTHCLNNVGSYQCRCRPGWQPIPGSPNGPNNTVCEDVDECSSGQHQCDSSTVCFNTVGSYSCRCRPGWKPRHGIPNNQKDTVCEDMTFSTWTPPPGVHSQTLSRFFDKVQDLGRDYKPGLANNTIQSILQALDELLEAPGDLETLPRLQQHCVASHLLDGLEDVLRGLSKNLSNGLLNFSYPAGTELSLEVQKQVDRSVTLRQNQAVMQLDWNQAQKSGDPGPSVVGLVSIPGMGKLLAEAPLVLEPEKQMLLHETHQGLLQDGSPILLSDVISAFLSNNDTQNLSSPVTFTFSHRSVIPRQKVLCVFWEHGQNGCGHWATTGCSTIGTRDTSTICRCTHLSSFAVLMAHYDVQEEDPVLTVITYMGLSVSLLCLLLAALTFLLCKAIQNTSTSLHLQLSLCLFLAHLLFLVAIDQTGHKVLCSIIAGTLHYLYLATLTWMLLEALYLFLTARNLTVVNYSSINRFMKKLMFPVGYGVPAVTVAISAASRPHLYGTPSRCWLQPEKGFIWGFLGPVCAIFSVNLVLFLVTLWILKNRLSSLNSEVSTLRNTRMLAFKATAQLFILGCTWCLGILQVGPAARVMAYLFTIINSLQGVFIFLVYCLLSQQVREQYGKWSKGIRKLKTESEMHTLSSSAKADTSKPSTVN

Assays:
Assay in all cases: log2 fold change, soluble protein after heating vs DMSO (PISA); higher = thermal stabilisation; K562 cells, 10 uM, 30 min; active = over 0.2 and 3.5 SD of the protein, either way, in both replicates (recomputed)
[1] = compound: CC[C@@H]1C(=O)N(C)c2cnc(Nc3ccc(C(=O)NC4CCN(C)CC4)cc3OC)nc2N1C1CCCC1
How it was run: (§1)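 K562 cells at 2×10^6 cells/mL were given 10 μM compound for 30 min. Aliquots then went through 3 min of heating across 48°C-58°C, were pooled, and were extracted in PBS with 0.5% NP-40 at 4°C, and the supernatant after 21,000xg for 90 min was quantified by TMTpro 16plex LC-MS/MS with channel sums equalised. Thermal stability relative to control samples, from duplicates, is given as log2 fold change.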

[2] = compound: CC[C@@H]1C(=O)N(C)c2cnc(Nc3ccc(C(=O)N[C@H]4CC[C@H](N5CCN(CC6CC6)CC5)CC4)cc3OC)nc2N1C(C)C [volasertib]
How it was run: as §1

[3] = compound: CC[C@H](C)N1C=C(C2=C(C=C(C=C21)C3=CN=C(C=C3)N4CCNCC4)C(=O)NCC5=C(C=C(NC5=O)C)C)C
How it was run: as §1

[4] = compound: CC[C@H](C)[C@@H](C(=O)N[C@@H]([C@@H](C)O)C(=O)N[C@@H](CC(C)C)C(=O)[C@]1(CO1)C)NC(=O)[C@H]([C@@H](C)CC)N(C)C(=O)C [epoxomicin]
How it was run: as §1

[5] = compound: CCn1c(C(=O)N(C2CC2)C2CC2)cc2c3c(ncn3C)c(Nc3cc(C)n(C)n3)nc21
How it was run: as §1

[6] = compound: CCn1cc(-c2ccnc3[nH]c(-c4cccc(CN(C)C)c4)cc23)c(-c2ccc(NC(=O)N(C)C)cc2)n1
How it was run: as §1

[7] = compound: CN(C)CC(=O)Nc1ccc2[nH]c(=O)c3ccccc3c2c1
How it was run: as §1

[8] = compound: CN(CCOC1=CC=C(C=C1)C[C@H]2C(=O)NC(=O)S2)C3=CC=CC=N3 (racemic) [rosiglitazone]
How it was run: as §1

[9] = compound: CN1C2=C(C3=C1C(=O)N(N=C3)CC4=CC(=CC=C4)N)SC(=C2)S(=O)C
How it was run: as §1

[10] = compound: CN1CCC(CNc2ccc3ncc(-c4cccc(OC(F)(F)F)c4)n3n2)CC1
How it was run: as §1

[11] = compound: CN1CCN(CCOc2cc(OC3CCOCC3)c3c(Nc4c(Cl)ccc5c4OCO5)ncnc3c2)CC1 [saracatinib]
How it was run: as §1

[12] = compound: CN1CCN(c2nc(C3=C(c4c[nH]c5ccccc45)C(=O)NC3=O)c3ccccc3n2)CC1 [sotrastaurin]
How it was run: as §1

[13] = compound: CN1CC[C@H](c2c(O)cc(O)c3c(=O)cc(-c4ccccc4Cl)oc23)[C@H](O)C1 [alvocidib]
How it was run: as §1

[14] = compound: CN1CCc2c(c3ccccc3n2Cc2ccc(C(=O)NO)cc2)C1 [Tubastatin A]
How it was run: as §1

[15] = compound: CNC(=O)C1=CC=CC=C1NC2=NC(=NC=C2Cl)NC3=C(C=C(C=C3)N4CCOCC4)OC
How it was run: as §1

[16] = compound: CNC(=O)c1ccc(Nc2ncc(C(F)(F)F)c(NCc3nccnc3N(C)S(C)(=O)=O)n2)cc1 [defactinib]
How it was run: as §1

[17] = compound: CNCc1ccc(-c2[nH]c3cc(F)cc4c3c2CCNC4=O)cc1 [rucaparib]
How it was run: as §1

[18] = compound: CNc1nc(-c2ccc3c(N)n[nH]c3c2)cc(N2C[C@@H](C(=O)NC3CCCCC3)CC[C@H]2C)n1
How it was run: as §1

[19] = compound: COC(=O)N[C@@H](C)CNc1nccc(-c2cn(C(C)C)nc2-c2cc(Cl)cc(NS(C)(=O)=O)c2F)n1 [encorafenib]
How it was run: as §1

[20] = compound: COC(=O)[C@H](CCSC)NC(=O)C1=C(C=C(C=C1)NC[C@H](CS)N)C2=CC=CC=C2
How it was run: as §1

Measured: log2 fold change

ALYREF (UniProt Q86V81)
inactive: [1] 0.269 | [2] 0.441 | [3] -0.123 | [4] -0.21 | [5] -0.042 | [6] 0.25 | [7] -0.089 | [8] -0.194 | [9] 0.257 | [10] 0.459 | [11] 0.037 | [12] 0.011 | [13] 0.359 | [14] 0.02 | [15] 0.048 | [16] 0.432 | [17] 0.292 | [18] 0.063 | [19] 0.071 | [20] 0.047

ALDH1A1 (UniProt P00352)
inactive: [1] 0.029 | [2] 0.034 | [3] -0.004 | [4] -0.025 | [5] -0.029 | [6] -0.033 | [7] -0.011 | [8] 0.038 | [9] -0.075 | [10] -0.051 | [11] 0.04 | [12] 0.037 | [13] 0 | [14] 0.003 | [15] 0.03 | [16] -0.005 | [17] -0.041 | [18] -0.002 | [19] -0.044 | [20] -0.002

ALKBH6 isoform 2 (UniProt Q3KRA9)
inactive: [1] 0.019 | [2] -0.082 | [3] 0.056 | [4] 0.013 | [5] 0.009 | [6] -0.106 | [7] -0.061 | [8] 0.028 | [9] -0.081 | [10] -0.065 | [11] 0.069 | [12] 0.061 | [13] 0.069 | [14] -0.017 | [15] -0.042 | [16] -0.024 | [17] -0.026 | [18] -0.049 | [19] -0.024 | [20] -0.006

AMDHD2 isoform 3 (UniProt Q9Y303)
inactive: [1] 0.013 | [2] -0.033 | [3] 0.026 | [4] -0.018 | [5] -0.055 | [6] -0.061 | [7] 0.009 | [8] 0.022 | [9] -0.054 | [10] -0.043 | [11] 0.031 | [12] 0.053 | [13] -0.024 | [14] 0.134 | [15] -0.011 | [16] -0.018 | [17] -0.01 | [18] 0.011 | [19] -0.011 | [20] 0

AKT1S1 isoform 3 (UniProt Q96B36)
inactive: [1] 0.025 | [2] 0.139 | [3] 0.028 | [4] 0.015 | [5] -0.016 | [6] 0.006 | [7] -0.025 | [8] -0.014 | [9] -0.062 | [10] 0.03 | [11] 0.022 | [12] 0.048 | [13] 0.001 | [14] -0.032 | [15] -0.014 | [16] 0.006 | [17] -0.033 | [18] 0.077 | [19] -0.042 | [20] 0.025

AGO4 (UniProt Q9HCK5)
inactive: [1] 0.168 | [2] 0.012 | [3] -0.02 | [4] -0.147 | [5] -0.016 | [6] 0.014 | [7] -0.027 | [8] -0.018 | [9] 0.106 | [10] 0.003 | [11] 0.003 | [12] 0.087 | [13] 0.095 | [14] -0.039 | [15] -0.018 | [16] 0.064 | [17] 0.078 | [18] 0.006 | [19] -0.015 | [20] -0.048

AKR7A2 (UniProt O43488)
inactive: [1] -0.03 | [2] -0.009 | [3] 0.054 | [4] 0.081 | [5] 0.015 | [6] 0.027 | [7] 0.032 | [8] 0.023 | [9] -0.036 | [10] -0.009 | [11] 0.117 | [12] -0.078 | [13] -0.161 | [14] -0.046 | [15] -0.011 | [16] -0.026 | [17] 0.013 | [18] 0.02 | [19] -0.004 | [20] -0.027

Quoted at random: two records from the list
AMDHD2 isoform 3 (UniProt Q9Y303)
inactive: [1] 0.013 | [2] -0.033 | [3] 0.026 | [4] -0.018 | [5] -0.055 | [6] -0.061 | [7] 0.009 | [8] 0.022 | [9] -0.054 | [10] -0.043 | [11] 0.031 | [12] 0.053 | [13] -0.024 | [14] 0.134 | [15] -0.011 | [16] -0.018 | [17] -0.01 | [18] 0.011 | [19] -0.011 | [20] 0

AKT1S1 isoform 3 (UniProt Q96B36)
inactive: [1] 0.025 | [2] 0.139 | [3] 0.028 | [4] 0.015 | [5] -0.016 | [6] 0.006 | [7] -0.025 | [8] -0.014 | [9] -0.062 | [10] 0.03 | [11] 0.022 | [12] 0.048 | [13] 0.001 | [14] -0.032 | [15] -0.014 | [16] 0.006 | [17] -0.033 | [18] 0.077 | [19] -0.042 | [20] 0.025

Continuation.

AKAP12 (UniProt Q02952)
inactive: [1] 0.179 | [2] 0.056 | [3] 0.151 | [4] 0.013 | [5] 0.019 | [6] -0.035 | [7] -0.083 | [8] 0.024 | [9] -0.072 | [10] 0.03 | [11] 0.039 | [12] -0.121 | [13] -0.048 | [14] -0.001 | [15] 0.01 | [16] 0.008 | [17] -0.037 | [18] -0.048 | [19] -0.013 | [20] -0.016

ALAD isoform 2 (UniProt P13716)
inactive: [1] 0.06 | [2] 0.108 | [3] 0.052 | [4] 0.08 | [5] -0.03 | [6] 0.048 | [7] 0.039 | [8] 0.026 | [9] -0.042 | [10] 0.025 | [11] -0.023 | [12] 0.01 | [13] 0.02 | [14] 0.002 | [15] -0.084 | [16] 0.008 | [17] -0.004 | [18] -0.076 | [19] 0.003 | [20] 0.002

AKR1A1 (UniProt P14550)
inactive: [1] -0.015 | [2] 0.009 | [3] 0.02 | [4] 0.028 | [5] -0.002 | [6] -0.066 | [7] 0.027 | [8] 0.03 | [9] -0.068 | [10] 0.042 | [11] 0.006 | [12] 0.018 | [13] -0.101 | [14] 0.011 | [15] -0.019 | [16] -0.042 | [17] -0.071 | [18] -0.009 | [19] 0.007 | [20] -0.007

AIF1L isoform 2 (UniProt Q9BQI0)
inactive: [1] -0.17 | [2] -0.076 | [3] 0.171 | [4] 0.031 | [5] 0.07 | [6] 0.016 | [7] 0.101 | [8] -0.007 | [9] -0.144 | [10] 0.002 | [11] 0.122 | [13] 0 | [15] -0.133 | [16] -0.176 | [17] -0.069 | [18] -0.063 | [19] 0.182 | [20] 0.024

ALKBH3 (UniProt Q96Q83)
inactive: [1] -0.053 | [2] 0.028 | [3] -0.051 | [4] 0.069 | [5] 0.02 | [6] 0.017 | [7] -0.145 | [8] 0 | [9] -0.069 | [10] -0.072 | [11] 0.033 | [12] 0.017 | [13] -0.016 | [14] -0.034 | [15] -0.08 | [16] -0.006 | [17] 0.006 | [18] -0.068 | [19] -0.035 | [20] 0.019

AKIRIN2 (UniProt Q53H80)
inactive: [1] 0.008 | [2] 0.175 | [3] 0.023 | [4] 0.074 | [5] -0.048 | [6] 0.035 | [7] -0.053 | [9] -0.072 | [10] -0.085 | [11] 0.022 | [12] -0.02 | [13] -0.378 | [14] 0.358 | [15] 0.094 | [16] -0.073 | [17] 0.077 | [18] -0.101 | [19] -0.076 | [20] 0.075

AMN1 (UniProt Q8IY45)
inactive: [1] 0.027 | [2] -0.155 | [3] -0.001 | [4] -0.04 | [5] -0.078 | [6] -0.178 | [7] -0.189 | [8] 0.058 | [9] -0.198 | [10] -0.19 | [11] 0.011 | [12] -0.095 | [13] 0.081 | [14] 0.167 | [15] 0.038 | [16] -0.28 | [17] -0.135 | [18] 0.017 | [19] 0.026 | [20] 0.197

AGO2 (UniProt Q9UKV8)
inactive: [1] 0.128 | [2] 0.052 | [3] -0.018 | [4] -0.081 | [5] -0.042 | [6] 0.08 | [7] -0.026 | [8] -0.042 | [9] 0.002 | [10] 0.124 | [11] 0.047 | [12] 0.018 | [13] 0.105 | [14] -0.023 | [15] 0.012 | [16] 0.084 | [17] 0.079 | [18] -0.031 | [19] -0.023 | [20] -0.022

ADGRE2 (UniProt Q9UHX3)
inactive: [1] 0.112 | [2] -0.035 | [3] -0.073 | [4] -0.012 | [5] -0.036 | [6] -0.049 | [7] -0.06 | [8] 0.009 | [10] 0.058 | [12] -0.019 | [14] 0.002 | [15] 0.003 | [16] 0.043 | [17] 0 | [19] 0.111 | [20] -0.008
